Data from the supplement of paper PMC10849652.
This is one part of the list.

Protein sequences, listed by entry. Tags and fused reporters are not part of them. Lines headed by an entry give the natural chain unless they say otherwise; changes in a name come on top.
UniProt P00390: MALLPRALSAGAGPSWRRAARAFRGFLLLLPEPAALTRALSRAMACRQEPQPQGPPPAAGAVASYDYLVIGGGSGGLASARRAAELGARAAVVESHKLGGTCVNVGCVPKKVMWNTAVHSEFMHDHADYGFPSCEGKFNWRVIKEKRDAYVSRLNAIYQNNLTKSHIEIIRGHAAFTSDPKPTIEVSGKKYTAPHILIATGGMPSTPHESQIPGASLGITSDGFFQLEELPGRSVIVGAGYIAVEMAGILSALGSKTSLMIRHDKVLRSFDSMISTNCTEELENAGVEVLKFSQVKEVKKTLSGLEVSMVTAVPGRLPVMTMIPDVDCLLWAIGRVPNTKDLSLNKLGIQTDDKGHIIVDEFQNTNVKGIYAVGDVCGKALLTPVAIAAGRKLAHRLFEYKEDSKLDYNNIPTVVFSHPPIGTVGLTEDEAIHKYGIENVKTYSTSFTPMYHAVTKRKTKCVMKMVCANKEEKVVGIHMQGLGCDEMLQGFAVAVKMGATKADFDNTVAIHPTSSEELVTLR
UniProt P08236: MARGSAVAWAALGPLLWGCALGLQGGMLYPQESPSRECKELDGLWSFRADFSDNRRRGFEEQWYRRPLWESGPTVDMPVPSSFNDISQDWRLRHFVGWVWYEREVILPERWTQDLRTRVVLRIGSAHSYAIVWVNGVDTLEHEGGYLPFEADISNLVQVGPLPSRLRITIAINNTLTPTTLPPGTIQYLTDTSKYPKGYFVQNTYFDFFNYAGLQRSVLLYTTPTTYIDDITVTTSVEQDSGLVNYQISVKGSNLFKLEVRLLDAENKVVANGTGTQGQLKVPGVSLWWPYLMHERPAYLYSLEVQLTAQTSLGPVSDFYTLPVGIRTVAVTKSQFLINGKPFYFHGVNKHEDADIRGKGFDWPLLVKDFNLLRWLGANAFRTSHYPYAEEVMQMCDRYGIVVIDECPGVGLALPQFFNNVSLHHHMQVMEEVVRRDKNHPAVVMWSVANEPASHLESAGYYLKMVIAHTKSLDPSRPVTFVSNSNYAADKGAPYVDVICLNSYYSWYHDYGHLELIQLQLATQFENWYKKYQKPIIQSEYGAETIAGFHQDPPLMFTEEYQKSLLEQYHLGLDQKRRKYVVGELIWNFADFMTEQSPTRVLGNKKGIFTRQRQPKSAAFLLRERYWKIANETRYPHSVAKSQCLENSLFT
UniProt Q9P2D3: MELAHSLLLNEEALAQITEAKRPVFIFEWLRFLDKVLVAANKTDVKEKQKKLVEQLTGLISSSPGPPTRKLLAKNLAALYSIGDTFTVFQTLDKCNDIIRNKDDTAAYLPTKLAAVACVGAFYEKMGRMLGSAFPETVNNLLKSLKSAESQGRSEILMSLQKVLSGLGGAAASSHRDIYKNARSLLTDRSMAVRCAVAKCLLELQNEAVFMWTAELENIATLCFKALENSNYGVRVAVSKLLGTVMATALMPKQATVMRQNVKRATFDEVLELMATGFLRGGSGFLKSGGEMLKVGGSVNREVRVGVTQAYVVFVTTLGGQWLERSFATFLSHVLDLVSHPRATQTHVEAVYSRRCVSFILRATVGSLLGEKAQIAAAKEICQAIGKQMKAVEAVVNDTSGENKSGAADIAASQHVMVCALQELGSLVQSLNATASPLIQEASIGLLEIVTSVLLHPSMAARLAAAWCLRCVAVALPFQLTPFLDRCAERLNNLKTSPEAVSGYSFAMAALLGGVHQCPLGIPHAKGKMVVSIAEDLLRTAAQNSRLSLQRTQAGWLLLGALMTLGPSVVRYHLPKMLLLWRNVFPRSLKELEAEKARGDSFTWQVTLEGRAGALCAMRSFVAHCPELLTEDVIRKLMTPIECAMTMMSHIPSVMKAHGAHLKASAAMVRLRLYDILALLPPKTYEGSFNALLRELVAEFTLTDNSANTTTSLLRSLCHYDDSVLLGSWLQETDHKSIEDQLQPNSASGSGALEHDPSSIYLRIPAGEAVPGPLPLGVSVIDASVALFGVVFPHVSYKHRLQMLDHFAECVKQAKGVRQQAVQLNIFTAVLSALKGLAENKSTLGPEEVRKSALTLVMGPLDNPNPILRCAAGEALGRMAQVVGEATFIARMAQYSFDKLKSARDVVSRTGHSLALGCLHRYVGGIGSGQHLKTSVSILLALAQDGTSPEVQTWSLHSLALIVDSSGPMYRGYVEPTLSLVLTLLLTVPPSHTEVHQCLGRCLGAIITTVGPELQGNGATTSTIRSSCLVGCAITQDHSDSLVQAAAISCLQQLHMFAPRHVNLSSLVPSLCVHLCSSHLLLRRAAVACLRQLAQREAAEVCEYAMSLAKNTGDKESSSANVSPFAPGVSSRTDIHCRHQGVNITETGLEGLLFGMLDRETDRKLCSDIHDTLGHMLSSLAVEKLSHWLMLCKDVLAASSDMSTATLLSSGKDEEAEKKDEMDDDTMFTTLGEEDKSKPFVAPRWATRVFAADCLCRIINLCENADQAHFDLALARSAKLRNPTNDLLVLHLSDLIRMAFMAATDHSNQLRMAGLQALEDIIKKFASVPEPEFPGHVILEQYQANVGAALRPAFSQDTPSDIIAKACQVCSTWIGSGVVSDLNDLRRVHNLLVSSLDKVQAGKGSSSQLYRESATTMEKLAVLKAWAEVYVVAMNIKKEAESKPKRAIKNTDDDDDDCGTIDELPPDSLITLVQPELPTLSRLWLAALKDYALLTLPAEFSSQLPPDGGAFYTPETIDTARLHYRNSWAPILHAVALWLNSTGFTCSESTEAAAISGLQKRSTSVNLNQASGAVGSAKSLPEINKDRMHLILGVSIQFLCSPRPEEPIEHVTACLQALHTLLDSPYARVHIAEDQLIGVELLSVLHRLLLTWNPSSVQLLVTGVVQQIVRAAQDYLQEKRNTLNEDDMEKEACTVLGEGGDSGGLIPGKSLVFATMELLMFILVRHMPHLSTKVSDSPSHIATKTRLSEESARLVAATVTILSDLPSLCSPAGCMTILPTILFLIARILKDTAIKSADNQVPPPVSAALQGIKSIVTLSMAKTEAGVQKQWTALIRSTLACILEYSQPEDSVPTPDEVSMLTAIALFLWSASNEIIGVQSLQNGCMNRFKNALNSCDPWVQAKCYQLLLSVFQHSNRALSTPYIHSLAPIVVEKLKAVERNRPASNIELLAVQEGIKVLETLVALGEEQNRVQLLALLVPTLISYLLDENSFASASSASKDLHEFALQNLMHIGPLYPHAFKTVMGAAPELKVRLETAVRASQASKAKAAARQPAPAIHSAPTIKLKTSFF
UniProt Q9UBN7: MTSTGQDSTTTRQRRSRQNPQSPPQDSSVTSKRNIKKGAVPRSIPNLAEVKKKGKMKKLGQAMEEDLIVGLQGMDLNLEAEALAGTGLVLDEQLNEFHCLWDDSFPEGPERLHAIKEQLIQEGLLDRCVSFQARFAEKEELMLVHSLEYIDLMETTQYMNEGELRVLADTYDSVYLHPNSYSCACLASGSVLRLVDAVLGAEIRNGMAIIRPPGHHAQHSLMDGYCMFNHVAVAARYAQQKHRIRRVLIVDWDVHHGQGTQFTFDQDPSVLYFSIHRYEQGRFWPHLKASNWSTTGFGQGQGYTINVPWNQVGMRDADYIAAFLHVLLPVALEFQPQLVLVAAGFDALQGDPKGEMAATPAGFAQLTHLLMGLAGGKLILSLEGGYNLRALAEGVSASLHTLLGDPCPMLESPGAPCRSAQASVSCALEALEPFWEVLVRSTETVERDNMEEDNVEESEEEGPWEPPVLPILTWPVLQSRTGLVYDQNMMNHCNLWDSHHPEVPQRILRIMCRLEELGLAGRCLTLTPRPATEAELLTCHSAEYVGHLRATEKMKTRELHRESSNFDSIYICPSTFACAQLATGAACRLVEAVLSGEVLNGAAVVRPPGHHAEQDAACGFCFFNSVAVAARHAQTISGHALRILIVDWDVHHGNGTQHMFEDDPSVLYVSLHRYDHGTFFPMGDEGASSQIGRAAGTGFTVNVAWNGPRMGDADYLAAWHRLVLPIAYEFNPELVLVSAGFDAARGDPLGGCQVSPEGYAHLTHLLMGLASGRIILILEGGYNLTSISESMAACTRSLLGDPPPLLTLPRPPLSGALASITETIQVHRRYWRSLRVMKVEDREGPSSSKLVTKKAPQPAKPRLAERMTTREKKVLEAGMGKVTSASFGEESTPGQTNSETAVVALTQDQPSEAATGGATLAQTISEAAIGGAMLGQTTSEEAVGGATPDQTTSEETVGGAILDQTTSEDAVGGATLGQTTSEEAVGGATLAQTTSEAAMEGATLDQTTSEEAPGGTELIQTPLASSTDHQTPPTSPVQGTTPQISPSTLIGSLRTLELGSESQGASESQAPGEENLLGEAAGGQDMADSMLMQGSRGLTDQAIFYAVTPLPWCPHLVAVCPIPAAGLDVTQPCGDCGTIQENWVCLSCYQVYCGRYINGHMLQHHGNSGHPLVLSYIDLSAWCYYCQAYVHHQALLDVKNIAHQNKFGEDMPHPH
UniProt Q9Y5Z4: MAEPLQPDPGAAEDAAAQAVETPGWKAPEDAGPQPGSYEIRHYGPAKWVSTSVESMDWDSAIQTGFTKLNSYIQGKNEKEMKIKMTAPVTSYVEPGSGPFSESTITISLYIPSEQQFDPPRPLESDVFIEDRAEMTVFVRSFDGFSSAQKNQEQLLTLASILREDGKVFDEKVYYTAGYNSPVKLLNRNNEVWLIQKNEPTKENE
UniProt Q96CS2: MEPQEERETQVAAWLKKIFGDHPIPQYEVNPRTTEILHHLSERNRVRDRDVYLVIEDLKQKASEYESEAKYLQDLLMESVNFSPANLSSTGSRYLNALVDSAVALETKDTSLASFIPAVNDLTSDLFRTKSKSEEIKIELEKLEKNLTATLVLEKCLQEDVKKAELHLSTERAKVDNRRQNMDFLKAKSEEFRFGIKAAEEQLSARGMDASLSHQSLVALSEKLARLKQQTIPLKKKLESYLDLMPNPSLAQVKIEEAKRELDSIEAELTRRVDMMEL
UniProt P02724: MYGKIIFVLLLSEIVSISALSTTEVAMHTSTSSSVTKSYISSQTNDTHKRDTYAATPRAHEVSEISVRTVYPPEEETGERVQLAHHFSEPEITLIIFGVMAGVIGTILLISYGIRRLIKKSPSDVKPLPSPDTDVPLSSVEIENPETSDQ
UniProt A4D1E9: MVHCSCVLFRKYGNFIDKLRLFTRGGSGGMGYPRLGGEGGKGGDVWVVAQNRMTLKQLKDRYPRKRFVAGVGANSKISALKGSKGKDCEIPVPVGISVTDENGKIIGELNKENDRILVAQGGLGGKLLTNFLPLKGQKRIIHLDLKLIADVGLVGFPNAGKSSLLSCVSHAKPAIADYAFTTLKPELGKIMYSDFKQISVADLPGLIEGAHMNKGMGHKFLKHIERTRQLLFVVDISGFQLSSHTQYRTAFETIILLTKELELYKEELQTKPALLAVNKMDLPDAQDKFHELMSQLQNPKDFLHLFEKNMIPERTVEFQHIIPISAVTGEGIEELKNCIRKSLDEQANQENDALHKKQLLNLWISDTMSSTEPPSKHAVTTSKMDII
UniProt P78347: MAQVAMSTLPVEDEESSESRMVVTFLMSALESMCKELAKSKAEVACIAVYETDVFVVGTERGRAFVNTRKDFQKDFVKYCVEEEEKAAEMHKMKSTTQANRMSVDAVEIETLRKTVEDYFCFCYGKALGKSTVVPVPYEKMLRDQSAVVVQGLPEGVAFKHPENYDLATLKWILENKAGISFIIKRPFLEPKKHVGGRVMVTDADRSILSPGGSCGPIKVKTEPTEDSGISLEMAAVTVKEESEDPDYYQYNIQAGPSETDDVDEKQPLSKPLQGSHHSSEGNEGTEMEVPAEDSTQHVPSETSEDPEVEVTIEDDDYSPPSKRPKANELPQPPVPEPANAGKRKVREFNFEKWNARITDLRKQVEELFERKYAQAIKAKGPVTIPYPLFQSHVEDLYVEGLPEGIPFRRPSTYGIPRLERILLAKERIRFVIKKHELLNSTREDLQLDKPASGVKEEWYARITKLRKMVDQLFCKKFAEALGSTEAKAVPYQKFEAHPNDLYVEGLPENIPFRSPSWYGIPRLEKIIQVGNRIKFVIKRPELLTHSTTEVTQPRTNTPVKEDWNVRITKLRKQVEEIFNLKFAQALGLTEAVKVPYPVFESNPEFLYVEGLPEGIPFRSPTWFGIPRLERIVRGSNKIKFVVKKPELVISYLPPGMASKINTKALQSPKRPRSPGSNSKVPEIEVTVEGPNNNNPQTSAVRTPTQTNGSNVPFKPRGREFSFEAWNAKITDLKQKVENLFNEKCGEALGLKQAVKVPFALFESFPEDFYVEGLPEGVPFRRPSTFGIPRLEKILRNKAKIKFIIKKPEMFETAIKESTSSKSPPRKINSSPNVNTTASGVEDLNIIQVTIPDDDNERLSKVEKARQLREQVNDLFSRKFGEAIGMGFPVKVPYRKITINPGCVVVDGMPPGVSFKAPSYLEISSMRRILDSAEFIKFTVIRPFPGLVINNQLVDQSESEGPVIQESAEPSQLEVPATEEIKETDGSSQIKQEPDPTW

Assays:
Test in all cases: log2 fold change, soluble protein after heating vs DMSO (PISA); higher = thermal stabilisation; K562 cells, 10 uM, 30 min; active = over 0.2 and 3.5 SD of the protein, either way, in both replicates (recomputed)
[1] = compound: NC(=O)Nc1cc(-c2cccc(F)c2)sc1C(=O)N[C@H]1CCCNC1
How it was run: (§1)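 Values are thermal stability changes relative to control samples and are taken from duplicates. They are stated as log2 fold changes. Before quantification by TMTpro 16plex LC-MS/MS with equalised channel sums, K562 cells at 2×10^6 cells/mL were treated with 10 μM compound for 30 min, heated in aliquots for 3 min across 48°C-58°C, pooled, extracted in PBS with 0.5% NP-40 at 4°C, and centrifuged at 21,000xg for 90 min to give the soluble supernatant.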

[2] = compound: NC(=O)c1cnc(N[C@@H]2CCCC[C@@H]2N)nc1Nc1cccc(-n2nccn2)c1
How it was run: as §1

[3] = compound: NC1(c2ccc(-c3nc4ccn5c(=O)[nH]nc5c4cc3-c3ccccc3)cc2)CCC1
How it was run: as §1

[4] = compound: NCC(=O)Nc1ccc(-n2nc(C(F)(F)F)cc2-c2ccc3c(ccc4ccccc43)c2)cc1
How it was run: as §1

entinostat = compound: Nc1ccccc1NC(=O)c1ccc(CNC(=O)OCc2cccnc2)cc1 [entinostat]
How it was run: as §1

vorinostat = compound: O=C(CCCCCCC(=O)Nc1ccccc1)NO [vorinostat]
How it was run: as §1

citarinostat = compound: O=C(CCCCCCNC(=O)c1cnc(N(c2ccccc2)c2ccccc2Cl)nc1)NO [citarinostat]
How it was run: as §1

silmitasertib = compound: O=C(O)c1ccc2c(c1)nc(Nc1cccc(Cl)c1)c1ccncc12 [silmitasertib]
How it was run: as §1

[5] = compound: O=C1NC(=O)C(c2cnc3ccccn23)=C1c1cn2c3c(cc(F)cc13)CN(C(=O)N1CCCCC1)CC2
How it was run: as §1

[6] = compound: c1cc(OCCN2CCCCC2)cc(-c2n[nH]c3ccc(-c4nnc[nH]4)cc23)c1
How it was run: as §1

entospletinib = compound: c1cn2cc(-c3ccc4cn[nH]c4c3)nc(Nc3ccc(N4CCOCC4)cc3)c2n1 [entospletinib]
How it was run: as §1

Row | Target | log2 fold change [1] | log2 fold change [2] | log2 fold change [3] | log2 fold change [4] | log2 fold change (entinostat) | log2 fold change (vorinostat) | log2 fold change (citarinostat) | log2 fold change (silmitasertib) | log2 fold change [5] | log2 fold change [6] | log2 fold change (entospletinib)
1 | GSR (UniProt P00390) | inactive: 0.008 | inactive: -0.046 | inactive: 0 | inactive: -0.03 | inactive: -0.011 | inactive: 0.019 | inactive: 0.028 | inactive: -0.027 | inactive: -0.023 | inactive: 0.018 | 
2 | GSTP1 (UniProt P09211) | inactive: -0.044 | inactive: -0.01 | inactive: -0.056 | inactive: 0.001 | inactive: -0.006 | inactive: -0.012 | inactive: 0.034 | inactive: -0.038 | inactive: -0.005 | inactive: -0.013 | 
3 | GTF2A1 (UniProt P52655) | inactive: -0.029 | inactive: 0.249 | inactive: 0.01 | inactive: 0.093 | inactive: -0.116 | inactive: -0.031 | inactive: -0.035 | inactive: 0.004 | inactive: -0.028 | inactive: 0.016 | 
4 | GUSB (UniProt P08236) | inactive: -0.044 | inactive: 0.029 | inactive: 0.047 | inactive: 0.067 | inactive: -0.066 | inactive: 0.049 | inactive: 0.148 | inactive: -0.011 | inactive: 0.057 | inactive: -0.059 | 
5 | H2AFX (UniProt P16104) | inactive: 0.054 | inactive: 0.245 | inactive: 0.441 | inactive: 0.041 | inactive: 0.132 | inactive: 0.216 | inactive: -0.035 | inactive: 0.08 | inactive: 0.077 | inactive: -0.083 | 
6 | HEATR5B (UniProt Q9P2D3) | inactive: 0.01 | inactive: 0.012 | inactive: -0.152 | inactive: -0.028 | inactive: -0.03 | inactive: -0.008 | inactive: 0 | inactive: -0.053 | inactive: 0.083 | inactive: 0.056 | 
7 | HDAC6 (UniProt Q9UBN7) | inactive: 0.002 | inactive: -0.04 | inactive: 0.054 | inactive: 0.001 | inactive: -0.053 | active: 0.86 | active: 0.747 | inactive: 0.009 | inactive: 0.004 | inactive: 0.064 | 
8 | HAT1 (UniProt O14929) | inactive: 0.002 | inactive: 0.006 | inactive: -0.076 | inactive: 0.01 | inactive: 0.053 | inactive: 0.001 | inactive: 0.071 | inactive: 0.052 | inactive: -0.055 | inactive: -0.016 | 
9 | HBZ (UniProt P02008) | inactive: 0.03 | inactive: -0.042 | inactive: 0 | inactive: 0.026 | inactive: 0.059 | inactive: -0.022 | inactive: 0.027 | inactive: -0.019 | inactive: -0.055 | inactive: -0.018 | 
10 | GTF2H3 (UniProt Q13889) | inactive: -0.133 | inactive: -0.152 | inactive: 0.12 | inactive: -0.063 | inactive: 0.141 | inactive: 0.037 | inactive: -0.049 | inactive: -0.004 | inactive: -0.041 | inactive: -0.015 | 
11 | HAX1 (UniProt O00165) | inactive: -0.106 | inactive: -0.165 | inactive: -0.174 | inactive: -0.06 | inactive: 0.021 | inactive: 0.115 | inactive: -0.019 | inactive: -0.032 | inactive: 0.036 | inactive: -0.074 | 
12 | HDHD3 (UniProt Q9BSH5) | inactive: 0.003 | inactive: -0.115 | inactive: -0.06 | inactive: -0.04 | inactive: 0.009 | inactive: -0.04 | inactive: 0.015 | inactive: 0.01 | inactive: -0.072 | inactive: -0.095 | inactive: 0.035
13 | H1-5 (UniProt P16401) | inactive: 0.136 | inactive: 0.12 | inactive: 0.254 | inactive: 0.162 | inactive: 0.013 | inactive: 0.108 | inactive: -0.109 | inactive: 0.069 | inactive: 0.174 | inactive: -0.152 | inactive: 0.035
14 | HACD3 (UniProt Q9P035) | inactive: 0.037 | inactive: -0.07 | inactive: -0.079 | inactive: -0.04 | inactive: 0.008 | inactive: -0.018 | inactive: 0.064 | inactive: -0.023 | inactive: -0.021 | inactive: -0.07 | inactive: 0.005
15 | HEBP2 (UniProt Q9Y5Z4) | inactive: -0.002 | inactive: 0.008 | inactive: -0.051 | inactive: 0.009 | inactive: -0.016 | inactive: -0.018 | inactive: 0.024 | inactive: -0.02 | inactive: -0.005 | inactive: 0.011 | inactive: 0.012
16 | HERC1 (UniProt Q15751) | inactive: -0.017 | inactive: 0.012 | inactive: -0.076 | inactive: -0.015 | inactive: -0.008 | inactive: -0.003 | inactive: 0.03 | inactive: 0.067 | inactive: 0.017 | inactive: -0.053 | inactive: 0.003
17 | HERC4 (UniProt Q5GLZ8) | inactive: 0.002 | inactive: -0.025 | inactive: -0.136 | inactive: -0.061 | inactive: 0.018 | inactive: 0.049 | inactive: 0.034 | inactive: -0.001 | inactive: -0.074 | inactive: -0.049 | inactive: -0.018
18 | HAUS1 (UniProt Q96CS2) | inactive: 0.086 | inactive: -0.088 | inactive: -0.001 | inactive: -0.01 | inactive: 0.104 | inactive: 0.062 | inactive: 0.041 | inactive: 0.123 | inactive: 0.075 | inactive: -0.026 | inactive: 0.087
19 | GTSE1 (UniProt Q9NYZ3) | inactive: 0.158 | inactive: 0.038 | inactive: -0.003 | inactive: 0.029 | inactive: -0.052 | inactive: 0.093 | inactive: 0.179 | inactive: 0.024 | inactive: 0.228 | inactive: 0.037 | inactive: -0.137
20 | HDGFL3 (UniProt Q9Y3E1) | inactive: 0.003 | inactive: -0.035 | inactive: 0.026 | inactive: -0.012 | inactive: -0.018 | inactive: -0.116 | inactive: -0.041 | inactive: 0.016 | inactive: -0.078 | inactive: -0.025 | inactive: -0.004
21 | GYPA (UniProt P02724) | inactive: 0.219 | inactive: 0.098 | inactive: 0.268 | inactive: 0.294 | inactive: 0.133 | inactive: -0.021 | inactive: 0.038 | inactive: -0.077 | inactive: -0.031 | inactive: 0.114 | inactive: 0.015
22 | HAGH (UniProt Q16775) | inactive: -0.009 | inactive: 0.002 | inactive: -0.016 | inactive: 0.011 | inactive: -0.081 | inactive: -0.047 | inactive: 0.019 | inactive: -0.06 | inactive: 0.009 | inactive: -0.05 | inactive: 0.018
23 | GTPBP10 (UniProt A4D1E9) | inactive: 0.013 | inactive: -0.107 | inactive: 0.066 | inactive: 0.046 | inactive: 0.038 | inactive: -0.015 | inactive: -0.032 | inactive: -0.018 | inactive: -0.041 | inactive: -0.152 | inactive: -0.04
24 | H1-4 (UniProt P10412) | inactive: 0.17 | inactive: 0.074 | inactive: 0.3 | inactive: 0.093 | inactive: 0.025 | inactive: 0.097 | inactive: -0.056 | inactive: 0.086 | inactive: 0.148 | inactive: -0.279 | inactive: 0.156
25 | HDAC4 (UniProt P56524) | inactive: -0.007 | inactive: 0.084 | inactive: -0.03 | inactive: -0.039 | inactive: -0.065 | inactive: 0.103 | inactive: -0.051 | inactive: -0.021 | inactive: 0.009 | inactive: -0.064 | inactive: 0.137
26 | GTF2I (UniProt P78347) | inactive: 0.11 | inactive: 0.009 | inactive: 0.127 | inactive: -0.217 | inactive: 0.065 | inactive: 0.097 | inactive: -0.121 | inactive: 0.055 | inactive: -0.041 | inactive: -0.139 | inactive: 0.157
27 | HDLBP (UniProt Q00341) | inactive: 0.105 | inactive: 0.001 | inactive: 0.201 | inactive: 0.048 | inactive: 0.086 | inactive: 0.075 | inactive: -0.045 | inactive: 0.228 | inactive: 0.396 | inactive: -0.173 | inactive: 0.195
28 | GSTZ1 (UniProt G3V4T6) | inactive: -0.046 | inactive: 0.034 | inactive: -0.076 | inactive: -0.037 | inactive: 0.024 | inactive: 0.002 | inactive: 0.004 | inactive: -0.02 | inactive: -0.004 | inactive: -0.034 | inactive: 0.001

Rewritten tab-delimited: part of the list above
Row	Target	log2 fold change [1]	log2 fold change [2]	log2 fold change [3]	log2 fold change [4]	log2 fold change (entinostat)	log2 fold change (vorinostat)	log2 fold change (citarinostat)	log2 fold change (silmitasertib)	log2 fold change [5]	log2 fold change [6]	log2 fold change (entospletinib)
11	HAX1 (UniProt O00165)	inactive: -0.106	inactive: -0.165	inactive: -0.174	inactive: -0.06	inactive: 0.021	inactive: 0.115	inactive: -0.019	inactive: -0.032	inactive: 0.036	inactive: -0.074	
12	HDHD3 (UniProt Q9BSH5)	inactive: 0.003	inactive: -0.115	inactive: -0.06	inactive: -0.04	inactive: 0.009	inactive: -0.04	inactive: 0.015	inactive: 0.01	inactive: -0.072	inactive: -0.095	inactive: 0.035
13	H1-5 (UniProt P16401)	inactive: 0.136	inactive: 0.12	inactive: 0.254	inactive: 0.162	inactive: 0.013	inactive: 0.108	inactive: -0.109	inactive: 0.069	inactive: 0.174	inactive: -0.152	inactive: 0.035
14	HACD3 (UniProt Q9P035)	inactive: 0.037	inactive: -0.07	inactive: -0.079	inactive: -0.04	inactive: 0.008	inactive: -0.018	inactive: 0.064	inactive: -0.023	inactive: -0.021	inactive: -0.07	inactive: 0.005
15	HEBP2 (UniProt Q9Y5Z4)	inactive: -0.002	inactive: 0.008	inactive: -0.051	inactive: 0.009	inactive: -0.016	inactive: -0.018	inactive: 0.024	inactive: -0.02	inactive: -0.005	inactive: 0.011	inactive: 0.012
16	HERC1 (UniProt Q15751)	inactive: -0.017	inactive: 0.012	inactive: -0.076	inactive: -0.015	inactive: -0.008	inactive: -0.003	inactive: 0.03	inactive: 0.067	inactive: 0.017	inactive: -0.053	inactive: 0.003
